Measurements from publication PMC5703909, “Bactofilin-mediated organization of the ParABS chromosome segregation system in Myxococcus xanthus” (Nature Communications, 2017).
These are yes or no findings as the source states them, for the method shown. In cells and extracts the contact can be indirect. Some binding calls cover weakened binding; strength is not graded here. Sequences can lack the tags named with a protein.

T1: His6-PadC_(Δ1-239) (M. xanthus) (UniProt Q1D3H3)
T1 sequence: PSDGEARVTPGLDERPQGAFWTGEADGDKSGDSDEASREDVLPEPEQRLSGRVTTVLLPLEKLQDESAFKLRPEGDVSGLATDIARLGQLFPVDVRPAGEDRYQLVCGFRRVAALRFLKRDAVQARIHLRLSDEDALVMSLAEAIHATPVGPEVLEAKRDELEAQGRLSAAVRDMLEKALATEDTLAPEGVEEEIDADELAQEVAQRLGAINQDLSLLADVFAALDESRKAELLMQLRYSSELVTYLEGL

T2: BacN-HA (M. xanthus) (UniProt Q1D3H0)
T2 sequence: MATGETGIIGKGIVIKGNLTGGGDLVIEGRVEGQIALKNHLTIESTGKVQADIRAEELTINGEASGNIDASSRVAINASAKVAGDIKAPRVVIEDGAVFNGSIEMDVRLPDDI


Key:
[1] = target: T1, His6-PadC_(Δ1-239) (M. xanthus); assay: pull-down; Ni-NTA agarose beads pre-incubated with 1.5 mg purified His6-PadC(Δ1-239), mixed with cleared lysate of paraformaldehyde-treated DK1622 cells, overnight at 4 °C, buffer S; immunoblot with anti-BacP or anti-BacO; only the target purified
[2] = target: T2, BacN-HA (M. xanthus); assay: co-IP; anti-HA-tag mAb magnetic beads, 12 h at 4 °C, lysates of cells treated with 0.6% paraformaldehyde; Co-IP buffer (50 mM Tris/HCl pH 7.6, 150 mM NaCl, 0.1% Triton X-100); immunoblot with anti-HA, anti-BacP, anti-BacO

| binding [1] | binding [2] | Binder |
| --- | --- | --- |
| binds | binds | BacO (protein, UniProt Q1D3H1 1-126) MSFTPRTARHTPFERRTTLMANTVIGSSIVIDGEISGDEDLVIQGTVKGKISLKESLYVEGSGVVEADIETQNVEIAGRVTGNIVASDKVELKTDCRVVGDIKAPRILIADGASFKGNVDMDMKER |
| binds | binds | BacP (protein, UniProt Q1D3H2 1-240) MATAKELSASSNVDNTVVGPSILISGRLTGDEDLTVRGRVEGELTLSRTLIVEPSGVVKANVAVKNAIVSGVVVGNINATESVELTREGRMVGDIRAPRVIIVDGASFRGRVDMGDVEPGRLPAERPAVVRPTAVTRPTATPARPTIPAARPMPPPPPSRPTPPPPPARPSAPPAVTRPSAPITRPGLGGLGSKPLPPPPPTRVERAEPQAGQAGSAEPPTPVLVGAGAKKKVVVKKKTR |
